# Experimental data as given in article PMC5996148.
# “And” between values parts separate entries of the source, which are not always exact repeats. Equal entries are not always repeated. The list shows a part of the results. For some assays here: The exact form of the protein is not confirmed.
# Columns and labels:
# Test in all cases: protein microarray (ProtoArray v5.0), streptavidin-Alexa Fluor 647
# Details in all cases: 3'-biotin; 20 mM Tris (pH 7.5), 5 mM MgCl2, 100 mM KCl, 0.1% Tween-20, A/T-rich and random oligonucleotide blockers; temperature not stated; high values mean tight binding
# STARD3NL (human) = tested on: STARD3NL (human)
# STARD5 (human) = tested on: STARD5 (human)
# STARD7 (human) = tested on: STARD7 (human)
# STAT5B = target: T1, STAT5B (UniProt P51692)
# T1 sequence: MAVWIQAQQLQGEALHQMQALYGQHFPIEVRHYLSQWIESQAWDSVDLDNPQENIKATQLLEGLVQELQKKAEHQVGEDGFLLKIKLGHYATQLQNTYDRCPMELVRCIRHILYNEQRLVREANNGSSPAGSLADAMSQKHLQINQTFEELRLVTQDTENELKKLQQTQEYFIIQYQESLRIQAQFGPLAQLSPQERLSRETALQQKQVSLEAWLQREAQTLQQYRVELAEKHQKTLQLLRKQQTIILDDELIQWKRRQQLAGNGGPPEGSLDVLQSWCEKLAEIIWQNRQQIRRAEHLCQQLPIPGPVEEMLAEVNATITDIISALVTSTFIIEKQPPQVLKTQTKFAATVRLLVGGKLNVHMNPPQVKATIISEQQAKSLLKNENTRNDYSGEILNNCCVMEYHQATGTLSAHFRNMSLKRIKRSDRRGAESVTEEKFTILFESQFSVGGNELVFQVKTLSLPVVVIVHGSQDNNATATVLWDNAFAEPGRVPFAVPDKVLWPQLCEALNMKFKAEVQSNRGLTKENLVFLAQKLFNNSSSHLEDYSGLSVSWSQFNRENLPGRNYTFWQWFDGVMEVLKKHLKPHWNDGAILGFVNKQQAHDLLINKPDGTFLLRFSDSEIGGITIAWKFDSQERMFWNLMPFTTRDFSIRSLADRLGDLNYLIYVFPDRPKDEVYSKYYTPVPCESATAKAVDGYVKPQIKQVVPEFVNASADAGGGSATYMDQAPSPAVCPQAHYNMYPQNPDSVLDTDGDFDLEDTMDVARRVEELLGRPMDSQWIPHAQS
# STCH (human) = tested on: STCH (human)
# STEAP3 (human) = tested on: STEAP3 (human)
# STEAP4 (human) = tested on: STEAP4 (human)
# [1] = tested on: STIP1 homology and U box-containing protein 1 (human)
# STK10 (human) = tested on: STK10 (human)
# STK16 (human) = tested on: STK16 (human)
# STK40 (human) = tested on: STK40 (human)
# STMN2 (human) = tested on: STMN2 (human)
# STOML2 (human) = tested on: STOML2 (human)
# STOML3 (human) = tested on: STOML3 (human)
# STON1 (human) = tested on: STON1 (human)
# STRA13 (human) = tested on: STRA13 (human)
# STX18 (human) = tested on: STX18 (human)
# STX3 (human) = tested on: STX3 (human)
# STX7 (human) = tested on: STX7 (human)
# STX8 (human) = tested on: STX8 (human)
sequence,measurement,setting,value
GGGAGGCTGAGGCAGG [G4-1 biotinylated (PQS2)],binding signal,STARD3NL (human),-0.293 z-score
same,binding signal,STARD5 (human),-0.341 z-score
same,binding signal,STARD7 (human),-0.362 z-score
same,binding signal,STAT5B,-0.309 z-score
same,binding signal,STCH (human),-0.354 z-score
same,binding signal,STEAP3 (human),-0.312 z-score
same,binding signal,STEAP4 (human),-0.327 z-score
same,binding signal,[1],-0.324 z-score
same,binding signal,STK10 (human),-0.33 z-score
same,binding signal,STK16 (human),-0.336 z-score
same,binding signal,STK40 (human),-0.339 z-score
same,binding signal,STMN2 (human),-0.284 z-score
same,binding signal,STOML2 (human),-0.244 z-score and -0.341 z-score
same,binding signal,STOML3 (human),-0.298 z-score
same,binding signal,STON1 (human),-0.336 z-score
same,binding signal,STRA13 (human),-0.31 z-score
same,binding signal,STX18 (human),-0.338 z-score
same,binding signal,STX3 (human),-0.329 z-score
same,binding signal,STX7 (human),-0.312 z-score
same,binding signal,STX8 (human),-0.291 z-score

# 2 entries drawn at random from the list so far, as already listed:
sequence,measurement,setting,value
GGGAGGCTGAGGCAGG [G4-1 biotinylated (PQS2)],binding signal,STARD3NL (human),-0.293 z-score
same,binding signal,STARD5 (human),-0.341 z-score
